Source: PubChem BioAssay AID504444 (National Center for Advancing Translational Sciences (NCATS), 2011)
About 7,500 (2.1%) of roughly 360,000 compounds were called active. The shares of active, inactive and inconclusive entries below differ from those in the screen. The call rests on the fitted dose curve; in most records, active means well fitted inhibition curve with a large enough effect; inconclusive means small, poorly fitted or top-dose-only effect, or effect the other way; inactive means flat fitted curve, though single readings scatter. Potencies of inconclusive entries are doubtful fits and often do not repeat.

Test: Nrf2 qHTS screen for inhibitors; further: nearly all actives have a fitted effect of over 60% in size
Details: A549 ARE-Fluc reporter, luciferase luminescence, 18-24 h; series mostly up to 46 µM
Procedure, shortened: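 Nrf2 function is reported as luminescence of an ARE-controlled luciferase in A549 cells. Compounds were tested at several concentrations, and a CellTiter-Fluor read on the same wells flagged cytotoxicity.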
Potency means the concentration at half of the fitted maximal effect.

| SMILES | Potency |
| --- | --- |
| Cn1nc(C(C)(C)C)cc1C(=O)O | inactive |
| c1ccc(CNc2nc3ccccc3n3cnnc23)cc1 | inconclusive: 6.51 µM [falling, partial curve, poor fit] |
| CCn1cc2nc(SCc3cccc(C(F)(F)F)c3)n(Cc3ccc(Cl)cc3)c(=O)c2n1 | inconclusive: 18.4 µM [falling, single point] |
| O=C(O)CC/C(=N\Nc1ccc(S(=O)(=O)N2CCOCC2)cc1[N+](=O)[O-])c1cccs1 | inactive |
| CC(C)(C)S(=O)N1Cc2cc(=O)n(Cc3ccccc3)cc2[C@H]1CCO (stereo partly specified) | inconclusive: 0.731 µM [activator, full curve, poor fit] |
| COc1ccccc1NC(=O)CN1CCN(CC(=O)Nc2ccc(F)cc2F)CC1 | inconclusive: 29.1 µM [activator, single point] |
| Cc1ccc(Cl)cc1-n1nnc(-c2nsc(NC(=O)c3ccccc3Cl)n2)c1C | inconclusive: 29.1 µM [falling, single point] |
| C=CC(=O)Nc1cccc(Oc2ccnc3[nH]ccc23)c1 | inactive |
| CN(c1ccccc1)S(=O)(=O)c1ccc(C(=O)Nc2nnc(C3CC3)o2)cc1 | inactive |
| Cc1ccc2oc(C(=O)Nc3ccc(S(=O)(=O)N4CCCC(C)C4)cc3)cc(=O)c2c1 (stereo unspecified) | inconclusive: 1.3 µM [falling, partial curve, poor fit] |
| O=C(c1ccccc1)N1CCC(O)(c2ccc3c(c2)OCO3)CC1 | inconclusive: 2.59 µM [activator, partial curve, poor fit] |
| Cc1ccc(C)c(N2CCN(C(=O)c3cnn(C(C)(C)C)c3C3CCN(C(=O)OC(C)(C)C)CC3)CC2)c1 | active: 20.6 µM |
| COc1ccc(Cl)cc1NC(=O)NCCn1c(=O)oc2ccc(C)cc21 | inconclusive: 29.1 µM [falling, single point] |
| COc1ccc(S(=O)(=O)N2CCOCC2)cc1C(=O)NCC(c1ccccc1)c1ccccc1 | inactive |
| COc1ccc(CNC(=O)C(C)N2CCN(c3ccc(C(C)=O)cc3)CC2)cc1 (stereo unspecified) | inconclusive: 5.8 µM [activator, partial curve, poor fit] |
| CCCCNC(=O)/C(C#N)=c1\s/c(=C\c2ccccc2OC(F)F)c(=O)n1CCCOC | inactive |
| Cn1cccc1C(C#N)c1ncc(C(F)(F)F)cc1Cl (stereo unspecified) | inconclusive: 16.4 µM [falling, partial curve, poor fit] |
| O=C(c1ccc(-c2ccccc2Cl)o1)N1CCCC(C(F)(F)F)C1 (stereo unspecified) | inconclusive: 18.4 µM [activator, single point] |
| O=C(NCc1ccccc1)c1ccc(-c2ccccc2F)o1 | inconclusive: 9.2 µM [activator, partial curve] |
| Cn1c(=O)c([N+](=O)[O-])c(Cl)c2ccccc21 | inconclusive: 29.1 µM [falling, single point] |
| Cc1nn(C(C)(C)C)c(OC(=O)c2ccc3c(c2)OCO3)c1Sc1ccccc1 | inconclusive: 14.6 µM [falling, partial curve, poor fit] |

| SMILES | Potency |
| --- | --- |
| Cc1ccc(N(CC(=O)N2CCN(c3cccc(Cl)c3)CC2)S(=O)(=O)c2c(C)noc2C)cc1 | inconclusive: 14.6 µM [falling, single point] |
| COc1ccc(OC)c(N(CC(=O)N2CCN(c3cc(Cl)ccc3C)CC2)S(C)(=O)=O)c1 | inconclusive: 29.1 µM [falling, single point] |
| COc1ccccc1C(=O)NCCC(=O)NC1=NCCS1 | inconclusive: 4.11 µM [activator, full curve, poor fit] |
| CCCC(C(=O)Nc1cccc(S(=O)(=O)N2CCCC2)c1)c1ccccc1 (stereo unspecified) | inconclusive: 29.1 µM [falling, single point] |
| COc1ccc(NC(=O)C(Cc2c[nH]c3ccccc23)NC(=O)OC(C)(C)C)cc1 (stereo unspecified) | inconclusive: 18.4 µM [falling, partial curve, poor fit] |
| Cc1ccn2c(Nc3c(C)cccc3C)c(-c3ccsc3)nc2c1 | inconclusive: 18.4 µM [falling, single point] |
| CCN(CC(=O)NCc1ccc(Cl)cc1)C(=O)CCC(=O)c1ccc(F)cc1 | inconclusive: 36.6 µM [falling, partial curve, poor fit] |
| O=C(c1ccc(-c2nc3ccccc3s2)o1)N1CCN(c2ccccc2O)CC1 | inconclusive: 1.3 µM [activator, full curve] |
| CC1(c2nnc(-c3ccccc3)o2)CC(c2cccc(Cl)c2)=NO1 (stereo unspecified) | inconclusive: 18.4 µM [falling, single point] |
| CCOC(=O)N1CCN(C(=O)CSc2nc3c([nH]c4ccccc43)c(=O)n2C)CC1 | inconclusive: 5.8 µM [falling, partial curve, poor fit] |
| COc1ccc(NC(=O)CSC2CCCCC2)cc1 | inconclusive: 5.17 µM [activator, full curve] |
| CCOC(=O)Cc1c(C)nc2c(-c3ccc(Cl)cc3)c(C)[nH]n2c1=O | inconclusive: 20.6 µM [falling, single point] |
| O=C(NC(=S)Nc1ccc2c(c1)OCCO2)c1cccc(Br)c1 | inconclusive: 2.06 µM [activator, full curve, poor fit] |
| C(=C\c1ccco1)/c1ccc2ccccc2n1 | inconclusive: 1.84 µM [activator, full curve] |
| CC(C)C(NS(=O)(=O)c1ccc2c(c1)oc(=O)n2C)C(=O)N1CCN(c2cccc(Cl)c2)CC1 (stereo unspecified) | inactive |
| O=[N+]([O-])c1cc(Br)c(O)c(C=Nc2ccc(N3CCOCC3)cc2)c1 | inconclusive: 16.4 µM [activator, single point] |
| O=C1CC(N2C(=O)/C(=C/C=C/c3ccccc3)SC2=S)C(=O)N1c1ccccc1 (stereo unspecified) | inactive |
| COc1cc2[nH]c(=O)n(CCCCCC(=O)N3CC=C(c4ccccc4)CC3)c(=O)c2cc1OC | inconclusive: 20.6 µM [falling, single point] |
| Cc1cc2occ(CC(=O)NC3(C)CCS(=O)(=O)C3)c2cc1C (stereo unspecified) | inactive |
| CC1CCN(C(=O)C2CCCN(c3ncnc4c3nc3n4CCCCC3)C2)CC1 (stereo unspecified) | inactive |

Random excerpt: 2 compounds from above.

| SMILES | Potency |
| --- | --- |
| CCOC(=O)N1CCN(C(=O)CSc2nc3c([nH]c4ccccc43)c(=O)n2C)CC1 | inconclusive: 5.8 µM [falling, partial curve, poor fit] |
| O=[N+]([O-])c1cc(Br)c(O)c(C=Nc2ccc(N3CCOCC3)cc2)c1 | inconclusive: 16.4 µM [activator, single point] |
